Measurements reported in PubChem BioAssay AID504467 (National Center for Advancing Translational Sciences (NCATS), 2011).
Screen size: about 330,000 compounds; about 7,700 (2.3%) were called active. This list was built around the results that the source calls inconclusive (neither active nor inactive); the mix of calls is not that of the screen. Calls come from the whole dose curve; as a rule, active = well fitted inhibition curve with a large enough effect; inconclusive = small, poorly fitted or top-dose-only effect, or effect the other way; inactive = flat fitted curve, though single readings scatter. Potencies beside an inconclusive call are fits to weak or partial responses and may not hold up.

assay: qHTS screen for small molecules that inhibit ELG1-dependent DNA repair in human embryonic kidney (HEK293T) cells expressing luciferase-tagged ELG1; settings: HEK293T ELG1-luciferase reporter, luminescence, 16 h, DNA damage induced by 5-fluorouridine; activity change, negative = inhibition: at 46.1 µM (top of the series); note: nearly all actives have a fitted effect of over 55% in size
Method in brief: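 DMSO vehicle served as the neutral condition. Each well held 2,000 cells given 5-fluorouridine plus compound; after 16 hr at 37 °C/5% CO2, ONE-Glo was added and luciferase measured 30 min later.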
% is set by controls: 0 for no effect and ±100 for the full control effect; potency is the fitted concentration of half-maximal effect.

Compound	Potency	activity change, negative = inhibition
C#CCOCCOCCOCCNc1nc(N2CCOCC2)nc(N2CCN(C(=O)[C@H](CO)n3cc([C@@H](N)C(C)C)nn3)CC2)n1	inconclusive: 23.1 µM [activator, partial curve]	
O=C(Nc1cccc(Br)c1)c1ccc(Cl)c(S(=O)(=O)N2CCOCC2)c1	active: 16.4 µM	
Cc1ccsc1C(=O)OCC(=O)N1CCN(C(=O)c2ccco2)CC1	inconclusive: 18.3 µM [activator, single point]	
COc1ccc(CCNC2=C(Cl)C(=O)N(CCc3ccc(OC)c(OC)c3)C2=O)cc1OC	active: 13 µM	
CC(=O)N1C[C@H](O)C[C@H]1C(=O)O		inactive: 7.6%
CCc1ccc(-n2cccc2/C=C2/C(=N)N3C(=NC2=O)SN=C3S(C)(=O)=O)cc1		inactive: -10.7%
COC(=O)Cn1cnc2sc(C)c(S(=O)(=O)N3CCN(c4ccccc4OC)CC3)c2c1=O	inconclusive: 13 µM [inhibitor, partial curve, poor fit]	
Cc1c(-c2ccccc2)nc2ccccc2c1C(=O)NCc1cccs1	inconclusive: 29.1 µM [inhibitor, single point]	
CCOC(=O)c1sc(NC(=O)Nc2ccccc2)cc1C	inconclusive: 1.3 µM [activator, partial curve]	
COc1cccc(Cn2cccc(NC(=O)Nc3ccccc3C)c2=O)c1		inactive: -14.8%
CC(C)N(C(=O)[C@H]1C[C@H](CC(=O)NCC23CC4CC(CC(C4)C2)C3)C(=O)N2CCc3c([nH]c4cc(CCC(=O)N(C)C)ccc34)[C@]12C)C(C)C	inconclusive: 20.6 µM [inhibitor, single point]	
COc1ccccc1N1CCN(S(=O)(=O)c2ccc3nc(-c4ccccc4)[nH]c3c2)CC1	inconclusive: 29.1 µM [inhibitor, single point]	
COc1ccc(/C=C/C(=O)c2ccc3ccccc3c2O)cc1CN1CCOCC1		inactive: -16.5%
Cc1nc2cc(NC(=O)COc3ccc(C#N)cc3)ccc2n1-c1ccccc1	inconclusive: 29.1 µM [inhibitor, single point]	
CCN1CCN(C(=O)N2CCOCC2)CC1		inactive: 2.41%
COc1cccc(Cn2cc(C(=O)NCCN(C)C)nn2)c1	inconclusive: 29.1 µM [inhibitor, single point]	
O=C(N/N=C/c1sc(N2CCCCC2)nc1-c1cccs1)c1cccnc1	inconclusive: 18.3 µM [inhibitor, single point]	
CCc1c(C)c(C#N)c2nc3ccccc3n2c1NCC1CCCO1 (stereo not given)	inconclusive: 16.4 µM [inhibitor, single point]	
CC(C)Sc1nc2sc3c(c2c2nnc(SCC(=O)NCc4ccco4)n12)CCCC3	inconclusive: 29.1 µM [inhibitor, single point]	
C/C(=N\Nc1cccc([N+](=O)[O-])c1)c1cc2ccccc2o1	inconclusive: 18.3 µM [activator, partial curve]	
CCc1ccc(-c2cc(C(=O)N3N=C(C(F)F)CC3(O)C(F)F)c3ccccc3n2)cc1 (stereo not given)	inconclusive: 18.4 µM [activator, single point]	
CCCCCCSc1nsc(NC(C)=O)n1	inconclusive: 9.2 µM [activator, partial curve]	
O=C(COc1ccc(Cl)cc1[N+](=O)[O-])N/N=C/c1cccs1		inactive: 3.85%

Compound	Potency	activity change, negative = inhibition
Cc1ccc(/C=C/C(=O)N2CCc3ccccc3C2)cc1	inconclusive: 29.1 µM [activator, single point]	
COc1ccc(-c2cc3ncc(-c4ccccc4)c(N)n3n2)cc1	inconclusive: 2.59 µM [activator, partial curve]	
CC(=O)Cc1nsc(NC(=O)c2ccc(COc3ccccc3C)o2)n1		inactive: -4.01%
COc1ccc(N2CCN(C(=O)CN3C(=O)NC4(CCCCCC4)C3=O)CC2)cc1		inactive: 4.12%
CCN(CC)CCNC(=O)c1ccc(Cl)c(S(=O)(=O)N2CCCCCC2)c1	inconclusive: 23.1 µM [inhibitor, partial curve]	
CCOc1ccc(-n2c(-c3ccccc3)c[nH]c2=S)cc1		inactive: -0.819%
CC(=O)Nc1ccc(Nc2cc(C)c3ccccc3n2)cc1		inactive: 1.74%
C[C@H](NC(=O)c1nc[nH]c1C(=O)NC(c1ccccc1)c1ccccc1)C(=O)OCc1ccccc1		inactive: -4.63%
c1csc(-c2nnc(COc3ncnc4sccc34)o2)c1	inconclusive: 25.9 µM [activator, single point]	
OC1CCN(Cc2nc(Cc3ccccc3Cl)no2)CC1	inconclusive: 16.4 µM [activator, partial curve, poor fit]	
CCOC(=O)N1CCC(NC(=O)CCC(=O)N2CC(C)Oc3ccc(Cl)cc32)CC1 (stereo not given)	inconclusive: 11.6 µM [inhibitor, partial curve, poor fit]	
C#CCOCCOCCOCCNc1nc(N2CCN(C(=O)[C@H](CCCN=C(N)N)n3cc(C(N)[C@H](C)CC)nn3)CC2)nc(N2CCN(C(=O)[C@H](CC(N)=O)n3cc(C(N)[C@@H](C)CC)nn3)CC2)n1 (stereo not given in full)		inactive: 9.13%
CC(=O)Nc1ccc(SCC(=O)c2ccc(Br)s2)cc1	inconclusive: 14.6 µM [activator, partial curve, poor fit]	
CC(C)c1ccc(NC(=O)CSC(C)c2nc3ccccc3c(=O)[nH]2)cc1 (stereo not given)	inconclusive: 1.16 µM [inhibitor, single point]	
O=C(O)CCn1c(SCc2cccc3ccccc23)nc2ccccc21	inconclusive: 20.6 µM [activator, single point]	
O=C(NCc1csc(-c2cccs2)n1)c1ccsc1	inconclusive: 16.4 µM [activator, single point]	
CCCCC(NC(=O)Cc1c(C)c2cc3c4c(oc3c(C)c2oc1=O)CCCC4)C(=O)O (stereo not given)		inactive: 3.73%
CCCCn1c(N)c(C(=S)NC(=O)CC(C)(C)C)c(=O)n(C)c1=O		inactive: -13.6%
Cc1ccc(Cl)cc1N1CCN(C(=O)c2ccccc2SCC(=O)N2CCCC2)CC1		inactive: -23.5%
O=C(O)CN1CCc2ccccc2C1		inactive: 8.36%
CC(=O)Nc1ccc(S(=O)(=O)Nc2nc3ccccc3nc2Nc2cccc(O)c2)cc1	inconclusive: 29.1 µM [activator, single point]	
CCOC(=O)N1CCN(C(=O)/C=C/c2cccc([N+](=O)[O-])c2)CC1		inactive: 3.79%
O=C(Nc1nnc(-c2ccc3c(c2)CCCC3)o1)c1c(F)cccc1F	inconclusive: 16.4 µM [activator, partial curve]	
C=CCSc1nn2c(=O)c3ccccc3nc2s1	inconclusive: 20.6 µM [activator, partial curve]	

Five entries from above, as comma-separated lines:
Compound,Potency,"activity change, negative = inhibition"
Cc1ccsc1C(=O)OCC(=O)N1CCN(C(=O)c2ccco2)CC1,"inconclusive: 18.3 µM [activator, single point]",
COc1ccc(CCNC2=C(Cl)C(=O)N(CCc3ccc(OC)c(OC)c3)C2=O)cc1OC,active: 13 µM,
CC(=O)N1C[C@H](O)C[C@H]1C(=O)O,,inactive: 7.6%
CCc1ccc(-n2cccc2/C=C2/C(=N)N3C(=NC2=O)SN=C3S(C)(=O)=O)cc1,,inactive: -10.7%
COC(=O)Cn1cnc2sc(C)c(S(=O)(=O)N3CCN(c4ccccc4OC)CC3)c2c1=O,"inconclusive: 13 µM [inhibitor, partial curve, poor fit]",

Further results follow.

Compound	Potency	activity change, negative = inhibition
Cc1cc2cc3c(cc2nc1SCC(=O)N1CCN(C(=O)c2ccco2)CC1)OCO3	inconclusive: 14.6 µM [inhibitor, partial curve]	
CCCCNC(=O)CN1CCN(Cc2ccc3cc(OC)ccc3c2)CC1		inactive: -11.6%
Cn1cc(SCC(=O)Nc2ccc3c(c2)OCCO3)c2ccccc21	inconclusive: 13 µM [activator, partial curve]	
Cc1noc(C(=O)N2CC3(C)CC2CC(C)(C)C3)c1Cl (stereo not given)	inconclusive: 20.6 µM [inhibitor, partial curve, poor fit]	
O=C(COC(=O)c1c(Cl)cccc1Cl)Nc1cccc(S(=O)(=O)NC2=NCCCCC2)c1	inconclusive: 32.6 µM [inhibitor, single point]	
N#C/C(=C\c1ccc(Sc2ccccc2)o1)c1nc2ccccc2[nH]1	inconclusive: 2.59 µM [activator, full curve]	
COc1ccccc1C(c1nnnn1Cc1ccco1)N1CCN(c2cccc(C)c2C)CC1 (stereo not given)	inconclusive: 13 µM [inhibitor, partial curve]	
CCOc1ccc(N(C)Cc2cc(=O)oc3ccc(OC)cc23)cc1	active: 16.4 µM	
Cc1ccc(-c2nc3cccnc3o2)cc1NC(=O)COc1ccc(C(C)(C)C)cc1	inconclusive: 25.9 µM [inhibitor, single point]	
COCCn1c(-c2ccc(F)cc2)nc2oc3cc(OC)ccc3c(=O)c2c1=O		inactive: -13.7%
COc1ccc(/C=N/NC(=O)CCn2nc(C)cc2C)cc1O		inactive: -7.84%
Cc1csc(NC(=O)C2CCCO2)n1 (stereo not given)	inconclusive: 25.9 µM [activator, partial curve, poor fit]	
CCN(CC(=O)Nc1ccc2c(c1)OCCO2)CC(=O)Nc1ccccc1C(F)(F)F		inactive: 9.74%
COc1ccc(NC(=O)/C=C/c2ccccc2)cn1	inconclusive: 11.6 µM [activator, partial curve]	
CC(C)CCN1C(N(C)C)=NC[C@@H]1C		inactive: 28.3%
O=C(NC(=S)NC1CCS(=O)(=O)C1)c1ccccc1F (stereo not given)	inconclusive: 20.6 µM [activator, partial curve, poor fit]	
CN1CCC[C@@H]1CCNC(=O)c1cccc2c1C(=O)c1ccc(N3CCCC3)cc1S2(=O)=O	inconclusive: 23.1 µM [activator, partial curve, poor fit]	
Cc1ccc2oc(=O)c3cnn(CC(=O)N4CCN(c5ccccc5)CC4)c3c2c1		inactive: 9.67%
O=C(Cc1ccccc1)Nc1ccccc1C(=O)N1CCCCCC1		inactive: 9.64%
CC(C)n1c(CSCc2ccc(Cl)cc2Cl)n[nH]c1=S	inconclusive: 23.1 µM [inhibitor, single point]	
Cc1cc(C(=O)N/N=C/c2cccnc2)c(C)o1	inconclusive: 10.3 µM [activator, partial curve, poor fit]	
Cc1cc(C)cc(NC(=O)N2CCCC2C(=O)Nc2ccc(-n3cnnn3)cc2)c1 (stereo not given)	inconclusive: 4.61 µM [inhibitor, partial curve]	
